# Source: the supplement of paper PMC12067093, “Discovery and optimisation of a covalent ligand for TRIM25 and its application to targeted protein ubiquitination” (Chemical Science, 2025)
# By UniProt entry, the sequences of proteins in these tests, tags left out. Where a name states a change or a piece, a line headed by the entry shows the natural chain unless it says otherwise.
# UniProt O43432, whole entry, looked up: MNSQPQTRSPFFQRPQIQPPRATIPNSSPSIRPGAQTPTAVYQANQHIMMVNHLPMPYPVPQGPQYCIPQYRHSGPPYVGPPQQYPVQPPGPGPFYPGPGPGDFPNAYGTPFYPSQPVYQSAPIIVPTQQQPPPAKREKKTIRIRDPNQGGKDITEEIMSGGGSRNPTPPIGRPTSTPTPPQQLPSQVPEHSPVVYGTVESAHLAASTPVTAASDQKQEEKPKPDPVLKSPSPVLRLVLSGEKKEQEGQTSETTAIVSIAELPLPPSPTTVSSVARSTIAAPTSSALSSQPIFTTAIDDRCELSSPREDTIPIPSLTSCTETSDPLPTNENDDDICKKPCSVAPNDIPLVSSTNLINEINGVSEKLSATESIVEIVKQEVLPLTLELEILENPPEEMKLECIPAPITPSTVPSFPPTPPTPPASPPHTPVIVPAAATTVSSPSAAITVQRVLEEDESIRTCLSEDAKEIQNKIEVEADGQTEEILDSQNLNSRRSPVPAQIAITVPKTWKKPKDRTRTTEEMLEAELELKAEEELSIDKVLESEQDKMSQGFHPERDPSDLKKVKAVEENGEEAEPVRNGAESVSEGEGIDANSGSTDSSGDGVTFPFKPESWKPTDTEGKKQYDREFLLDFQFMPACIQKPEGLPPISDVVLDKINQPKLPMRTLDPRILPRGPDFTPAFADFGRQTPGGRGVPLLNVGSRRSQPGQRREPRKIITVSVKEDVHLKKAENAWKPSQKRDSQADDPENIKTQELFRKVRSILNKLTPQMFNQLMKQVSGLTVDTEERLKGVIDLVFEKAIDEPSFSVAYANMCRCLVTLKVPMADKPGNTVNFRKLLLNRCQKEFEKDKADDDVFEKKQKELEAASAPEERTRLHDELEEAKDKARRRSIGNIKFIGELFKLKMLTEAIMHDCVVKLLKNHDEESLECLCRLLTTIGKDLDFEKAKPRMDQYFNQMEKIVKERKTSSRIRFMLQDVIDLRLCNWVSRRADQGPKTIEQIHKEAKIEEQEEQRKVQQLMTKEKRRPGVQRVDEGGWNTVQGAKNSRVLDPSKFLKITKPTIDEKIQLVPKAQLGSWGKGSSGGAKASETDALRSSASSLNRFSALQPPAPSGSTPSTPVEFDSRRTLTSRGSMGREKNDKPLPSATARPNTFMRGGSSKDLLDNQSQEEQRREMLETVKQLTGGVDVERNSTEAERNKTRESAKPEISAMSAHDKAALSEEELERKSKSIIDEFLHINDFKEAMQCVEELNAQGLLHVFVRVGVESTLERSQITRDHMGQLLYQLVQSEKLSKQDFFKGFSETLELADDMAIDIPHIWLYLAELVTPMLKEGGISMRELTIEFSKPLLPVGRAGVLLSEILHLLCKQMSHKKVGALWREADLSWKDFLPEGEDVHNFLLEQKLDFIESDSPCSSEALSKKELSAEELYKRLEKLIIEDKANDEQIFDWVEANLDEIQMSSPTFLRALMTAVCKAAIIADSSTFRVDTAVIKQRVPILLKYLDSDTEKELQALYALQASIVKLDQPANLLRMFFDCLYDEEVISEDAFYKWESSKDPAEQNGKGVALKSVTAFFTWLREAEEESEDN
# UniProt O95163: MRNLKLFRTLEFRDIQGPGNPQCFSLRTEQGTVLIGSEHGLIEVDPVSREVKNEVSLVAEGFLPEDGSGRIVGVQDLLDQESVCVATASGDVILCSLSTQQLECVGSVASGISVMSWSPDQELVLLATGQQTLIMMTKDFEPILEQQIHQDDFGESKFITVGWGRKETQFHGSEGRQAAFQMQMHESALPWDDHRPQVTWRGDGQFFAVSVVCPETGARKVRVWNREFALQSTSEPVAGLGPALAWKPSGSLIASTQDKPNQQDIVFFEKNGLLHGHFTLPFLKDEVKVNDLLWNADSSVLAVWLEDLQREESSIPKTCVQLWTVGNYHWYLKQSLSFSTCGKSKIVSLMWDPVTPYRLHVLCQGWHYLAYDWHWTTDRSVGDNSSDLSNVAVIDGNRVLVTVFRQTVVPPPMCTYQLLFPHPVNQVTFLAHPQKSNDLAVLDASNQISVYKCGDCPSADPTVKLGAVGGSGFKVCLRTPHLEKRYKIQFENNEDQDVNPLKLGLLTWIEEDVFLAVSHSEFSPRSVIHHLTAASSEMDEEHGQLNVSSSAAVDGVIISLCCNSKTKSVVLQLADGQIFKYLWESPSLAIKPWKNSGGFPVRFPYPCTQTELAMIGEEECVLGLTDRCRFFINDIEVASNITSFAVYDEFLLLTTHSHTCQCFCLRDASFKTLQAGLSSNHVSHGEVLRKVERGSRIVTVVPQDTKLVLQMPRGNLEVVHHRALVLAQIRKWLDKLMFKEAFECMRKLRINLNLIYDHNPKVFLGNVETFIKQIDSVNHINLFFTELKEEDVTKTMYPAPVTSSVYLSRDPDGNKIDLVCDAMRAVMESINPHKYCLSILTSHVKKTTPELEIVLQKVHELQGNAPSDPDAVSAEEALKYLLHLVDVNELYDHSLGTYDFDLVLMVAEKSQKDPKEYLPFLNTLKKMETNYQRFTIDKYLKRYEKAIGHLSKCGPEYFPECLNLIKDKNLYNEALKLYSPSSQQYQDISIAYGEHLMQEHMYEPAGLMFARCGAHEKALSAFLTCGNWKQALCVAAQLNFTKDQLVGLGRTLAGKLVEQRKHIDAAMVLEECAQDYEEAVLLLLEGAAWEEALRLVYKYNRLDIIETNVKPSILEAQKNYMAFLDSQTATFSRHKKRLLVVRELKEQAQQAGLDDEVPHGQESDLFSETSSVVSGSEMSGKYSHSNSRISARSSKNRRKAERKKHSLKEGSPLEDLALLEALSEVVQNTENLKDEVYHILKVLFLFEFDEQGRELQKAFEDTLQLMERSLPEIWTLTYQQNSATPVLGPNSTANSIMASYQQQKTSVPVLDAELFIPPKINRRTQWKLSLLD
# UniProt Q9UM22: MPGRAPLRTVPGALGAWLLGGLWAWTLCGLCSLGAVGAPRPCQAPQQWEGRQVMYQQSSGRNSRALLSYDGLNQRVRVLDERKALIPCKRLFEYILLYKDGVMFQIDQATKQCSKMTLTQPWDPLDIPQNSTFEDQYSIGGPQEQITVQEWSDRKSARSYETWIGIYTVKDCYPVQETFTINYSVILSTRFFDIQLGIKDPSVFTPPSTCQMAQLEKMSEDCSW
# UniProt O43402: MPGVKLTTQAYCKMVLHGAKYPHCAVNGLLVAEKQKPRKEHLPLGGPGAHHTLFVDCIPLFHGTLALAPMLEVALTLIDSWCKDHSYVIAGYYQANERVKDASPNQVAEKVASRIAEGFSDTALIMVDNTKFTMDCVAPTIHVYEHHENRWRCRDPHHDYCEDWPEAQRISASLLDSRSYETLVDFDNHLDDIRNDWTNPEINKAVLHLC
# UniProt Q8N766: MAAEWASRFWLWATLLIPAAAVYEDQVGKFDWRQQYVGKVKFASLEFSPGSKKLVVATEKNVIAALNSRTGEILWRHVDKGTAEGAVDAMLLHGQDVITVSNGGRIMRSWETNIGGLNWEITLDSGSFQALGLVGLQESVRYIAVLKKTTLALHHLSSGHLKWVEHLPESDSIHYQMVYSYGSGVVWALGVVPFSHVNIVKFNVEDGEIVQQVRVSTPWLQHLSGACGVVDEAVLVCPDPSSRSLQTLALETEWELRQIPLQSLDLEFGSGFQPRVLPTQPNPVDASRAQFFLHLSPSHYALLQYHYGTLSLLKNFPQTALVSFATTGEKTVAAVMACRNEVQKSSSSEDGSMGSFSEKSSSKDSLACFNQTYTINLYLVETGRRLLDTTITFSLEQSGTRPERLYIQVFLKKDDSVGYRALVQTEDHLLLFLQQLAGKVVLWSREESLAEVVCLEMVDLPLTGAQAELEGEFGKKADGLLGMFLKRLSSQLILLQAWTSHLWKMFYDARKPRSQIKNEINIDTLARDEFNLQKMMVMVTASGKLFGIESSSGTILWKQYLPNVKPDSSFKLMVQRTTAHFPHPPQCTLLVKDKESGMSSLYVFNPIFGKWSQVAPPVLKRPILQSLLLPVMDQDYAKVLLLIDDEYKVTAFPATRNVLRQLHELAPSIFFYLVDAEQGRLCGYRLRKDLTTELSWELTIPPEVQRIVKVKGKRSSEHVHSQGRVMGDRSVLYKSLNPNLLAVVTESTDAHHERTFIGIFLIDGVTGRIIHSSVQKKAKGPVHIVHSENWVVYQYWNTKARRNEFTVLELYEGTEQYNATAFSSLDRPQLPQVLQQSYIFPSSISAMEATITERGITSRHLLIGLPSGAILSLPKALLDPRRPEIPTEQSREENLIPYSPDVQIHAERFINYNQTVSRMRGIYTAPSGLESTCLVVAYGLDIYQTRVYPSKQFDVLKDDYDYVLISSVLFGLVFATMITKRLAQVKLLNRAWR
# UniProt O60841: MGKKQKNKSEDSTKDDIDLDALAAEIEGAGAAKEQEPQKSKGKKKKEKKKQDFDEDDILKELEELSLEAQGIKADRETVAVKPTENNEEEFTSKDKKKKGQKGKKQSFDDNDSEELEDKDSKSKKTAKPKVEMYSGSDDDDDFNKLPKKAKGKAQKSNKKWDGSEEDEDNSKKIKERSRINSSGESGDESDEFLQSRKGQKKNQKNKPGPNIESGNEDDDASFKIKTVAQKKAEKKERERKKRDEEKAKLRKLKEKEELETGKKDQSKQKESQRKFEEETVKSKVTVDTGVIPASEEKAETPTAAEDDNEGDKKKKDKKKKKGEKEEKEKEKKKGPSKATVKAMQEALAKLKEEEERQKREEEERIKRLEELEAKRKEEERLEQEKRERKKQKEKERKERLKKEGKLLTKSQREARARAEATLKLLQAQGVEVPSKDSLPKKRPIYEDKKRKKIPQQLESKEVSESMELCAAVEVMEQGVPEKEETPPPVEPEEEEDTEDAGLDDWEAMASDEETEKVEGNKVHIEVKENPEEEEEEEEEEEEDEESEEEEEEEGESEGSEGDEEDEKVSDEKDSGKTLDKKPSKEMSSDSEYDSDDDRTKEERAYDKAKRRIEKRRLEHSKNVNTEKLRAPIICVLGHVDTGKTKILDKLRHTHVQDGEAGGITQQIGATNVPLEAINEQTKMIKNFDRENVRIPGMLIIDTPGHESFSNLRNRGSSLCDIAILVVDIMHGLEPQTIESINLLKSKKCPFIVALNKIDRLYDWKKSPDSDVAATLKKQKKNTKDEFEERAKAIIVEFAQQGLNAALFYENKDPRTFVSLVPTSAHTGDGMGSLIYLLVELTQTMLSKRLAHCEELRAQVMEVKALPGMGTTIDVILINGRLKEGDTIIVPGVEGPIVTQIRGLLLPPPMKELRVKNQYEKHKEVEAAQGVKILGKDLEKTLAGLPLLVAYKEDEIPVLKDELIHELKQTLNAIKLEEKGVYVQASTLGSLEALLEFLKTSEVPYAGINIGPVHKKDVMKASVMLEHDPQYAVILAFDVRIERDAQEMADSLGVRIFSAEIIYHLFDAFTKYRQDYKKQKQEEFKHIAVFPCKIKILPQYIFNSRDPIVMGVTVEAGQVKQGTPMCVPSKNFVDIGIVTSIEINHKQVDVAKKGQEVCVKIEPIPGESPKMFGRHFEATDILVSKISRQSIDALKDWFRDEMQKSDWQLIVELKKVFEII
# UniProt P42566: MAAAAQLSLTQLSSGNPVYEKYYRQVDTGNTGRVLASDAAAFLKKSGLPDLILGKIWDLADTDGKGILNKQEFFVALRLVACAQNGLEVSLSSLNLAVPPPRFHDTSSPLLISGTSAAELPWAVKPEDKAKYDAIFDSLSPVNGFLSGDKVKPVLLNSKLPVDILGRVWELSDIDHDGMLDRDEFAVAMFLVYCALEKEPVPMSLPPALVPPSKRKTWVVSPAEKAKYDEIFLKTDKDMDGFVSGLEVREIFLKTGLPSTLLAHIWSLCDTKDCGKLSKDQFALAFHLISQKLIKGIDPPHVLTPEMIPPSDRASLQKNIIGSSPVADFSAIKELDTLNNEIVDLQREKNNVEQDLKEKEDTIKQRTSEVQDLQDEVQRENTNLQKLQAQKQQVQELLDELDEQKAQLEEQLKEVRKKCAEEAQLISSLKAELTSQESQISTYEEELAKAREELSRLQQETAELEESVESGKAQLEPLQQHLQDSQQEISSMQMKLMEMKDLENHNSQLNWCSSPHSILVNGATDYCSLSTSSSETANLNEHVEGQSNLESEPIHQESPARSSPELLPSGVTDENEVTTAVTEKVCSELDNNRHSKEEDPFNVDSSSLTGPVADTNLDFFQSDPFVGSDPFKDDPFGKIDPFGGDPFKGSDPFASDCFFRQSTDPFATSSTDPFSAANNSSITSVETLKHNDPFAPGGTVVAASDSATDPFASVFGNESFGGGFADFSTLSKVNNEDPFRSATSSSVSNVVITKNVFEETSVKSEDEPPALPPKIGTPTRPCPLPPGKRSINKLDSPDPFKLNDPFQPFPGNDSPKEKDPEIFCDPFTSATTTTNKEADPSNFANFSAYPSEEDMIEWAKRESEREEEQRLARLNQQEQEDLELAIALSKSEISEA
# The list shows a part of the results.
# Compound: Cc1cc(ccc1-c1ccccc1)C(=O)N1CCCN(CC1)C(=O)CCl [compound 10]
# Assay: probe-labelled cysteine peptide fold change vs DMSO (competition) (log2 fold change); higher = less target engagement (more negative = stronger competition)
# Conditions: THP-1, incubation time: 4 h
# 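Further: competitive profiling in live THP-1 cells: cysteine peptides tagged with an iodoacetamide desthiobiotin (IA-DTB) probe, intensity after compound treatment relative to DMSO-treated cells.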
Target,probe-labelled cysteine peptide fold change (10 µM),probe-labelled cysteine peptide fold change (50 µM)
EP300_Q09472_388_SCQVAHCASSR (UniProt Q09472),0.012,-0.12
EIF4G3_O43432_913_MLTEAIMHDCVVK (UniProt O43432),-0.0124,-0.169
EPRS_P07814_1309_VACVQVVIIPCGITNALSEEDK (UniProt P07814),-0.161,0.101
ELP1_O95163_820_IDLVCDAMR (UniProt O95163),0.102,0.301
EP300_Q09472_1275_MHQICVLHHEIIWPAGFVCDGCLK (UniProt Q09472),-0.0309,0.13
ERAL1_O75616_425_GHVISQIAQEAGHDLMDIFLCDVDIR (UniProt O75616),0.0685,0.058
EPM2A_B3EWF7_192_RRASRAFCPR (UniProt B3EWF7),-0.189,-0.0883
EIF3H_O15372_177_LMEVCK (UniProt O15372),-0.109,0.0694
EP300_Q09472_1621_LIAGPAANSLPPIVDPDPLIPCDLMDGR (UniProt Q09472),0.815,0.109
EML2_O95834_604+605_VHLFSYPCCQPR (UniProt O95834),-0.152,-0.331
EIF4G1_Q04637_1487_ALMTAVCYSAIIFETPLR (UniProt Q04637),0.455,0.632
EPDR1_Q9UM22_88_ALIPCK (UniProt Q9UM22),-0.283,0.208
EMC8_O43402_12_LTTQAYCK (UniProt O43402),-0.0348,-0.0715
EMC1_Q8N766_338_TVAAVMACR (UniProt Q8N766),-0.00518,0.175
EPB41L2_O43491_232_VTLLDGTEYSCDLEK (UniProt O43491),-0.0561,-0.0992
EIF5B_O60841_853_RLAHCEELR (UniProt O60841),0.222,0.0785
EPS15_P42566_269_TGLPSTLLAHIWSLCDTK (UniProt P42566),0.224,-0.137
EPS15_P42566_82_LVACAQNGLEVSLSSLNLAVPPPR (UniProt P42566),-0.018,0.565
EIF4G3_O43432_928+930_NHDEESLECLCR (UniProt O43432),0.176,-0.343
EPRS_P07814_350_IDMSSNNGCMRDPTLYR (UniProt P07814),-0.0274,-0.367
EPS15_P42566_782_IGTPTRPCPLPPGKR (UniProt P42566),-0.367,-1.1

# Nothing new here: entries from further up.
Target,probe-labelled cysteine peptide fold change (10 µM),probe-labelled cysteine peptide fold change (50 µM)
EPDR1_Q9UM22_88_ALIPCK (UniProt Q9UM22),-0.283,0.208
EMC8_O43402_12_LTTQAYCK (UniProt O43402),-0.0348,-0.0715
EMC1_Q8N766_338_TVAAVMACR (UniProt Q8N766),-0.00518,0.175

# Next entries.

Target,probe-labelled cysteine peptide fold change (10 µM),probe-labelled cysteine peptide fold change (50 µM)
ELP2_Q6IA86_675_IIWSCDWSPDSK (UniProt Q6IA86),0.255,0.285
EPRS_P07814_1448+1453_IVQIPFCGEIDCEDWIK (UniProt P07814),0.0328,-0.199
ENOSF1_Q7L5Y1_307_ALVPLGIGIATGEQCHNR (UniProt Q7L5Y1),-0.0519,-0.286
EIPR1_Q53HC9_83_GVLTTCYNR (UniProt Q53HC9),0.00147,-0.249
EPS15_P42566_824_EKDPEIFCDPFTSATTTTNK (UniProt P42566),-0.367,-0.239
EIF3D_O15371_258_TQGNVFATDAILATLMSCTR (UniProt O15371),0.227,0.203
ELP4_Q96EB1_361_LNNLICDESDVK (UniProt Q96EB1),-0.0288,0.12
EML3_Q32P44_420_DSSCIVTSGK (UniProt Q32P44),0.137,-0.2
EIF5B_O60841_635_APIICVLGHVDTGK (UniProt O60841),-0.107,-0.13
ENGASE_Q8NFI3_113_LEDGFNVALEPLACR (UniProt Q8NFI3),-0.0961,-0.0816
ERCC2_P18074_588_YQEACENGR (UniProt P18074),-0.0903,-0.0608
ELP1_O95163_836_YCLSILTSHVK (UniProt O95163),-0.0463,-0.249
ELF2_Q15723_348_NSSPINCSR (UniProt Q15723),-0.37,-0.593
EIF3D_O15371_327_NLAMEATYINHNFSQQCLR (UniProt O15371),-0.222,-0.147
EPRS_P07814_623_VTWLAETTHALPIPVICVTYEHLITKPVLGKDEDFK (UniProt P07814),0.125,-0.203
ELP5_Q8TE02_151_LPCTTLCQVLHAVSHQDSCPGDSSSVGK (UniProt Q8TE02),0.187,0.148
EPHX2_P34913_232_VTGIQLLNTPAPLPTSCNPSDMSHGYVTVKPR (UniProt P34913),0.0137,-0.154
ERAP1_Q9NZ08_907_CVQQTIETIEENIGWMDK (UniProt Q9NZ08),0.00799,0.0662
EIF4G2_P78344_282_MCSLMLSK (UniProt P78344),0.175,-0.203
EPRS_P07814_1301_VACVQVVIIPCGITNALSEEDK (UniProt P07814),-0.0286,0.00582
EIF3L_Q9Y262_417_GDPQVYEELFSYSCPK (UniProt Q9Y262),-0.185,-0.215
